Reference: patent publication US20240158455A1, “MULTIPLE SCLEROSIS ASSOCIATED AUTOANTIGENS, AND USE THEREOF IN THERAPY AND DIAGNOSIS” (NEOGAP Therapeutics AB, priority 2017, published 2024)

System: T-cells in PBMCs from MS patients and healthy controls
Test: FluoroSpot with full-length recombinant antigens (52 patients, 24 controls), with ROC analysis
Type: cell-based, human
Conditions: full-length antigen used individually
Method: FIGS. 8A-8D. IFNγ/IL-22/IL-17 Fluorospot assay comparing T-cell activation in multiple sclerosis (MS)-patients and healthy controls when stimulated with full-length recombinant antigens (FABP7, PROK2, RTN3, SNAP91). Fifty-two Multiple Sclerosis patients and 24 healthy controls were tested for T-cell activation towards recombinant full-length versions of the autoantigens in a FluoroSpot assay. FIG. 8A: FABP7 isoform 2 (SEQ ID NO:1). FIG. 8B: PROK2 (SEQ ID NO:2). FIG. 8C: RTN3 SEQ ID NO:3. FIG. 8D: SNAP91 SEQ ID NO: 4. P-values calculated using Mann-Whitney test. Staples denote mean and C195%.
FIGS. 9A-9E. ROC-curves for the full-length antigens, Sensitivity and specificity when used as a diagnostic marker. Individually, the four antigens perform similarly as diagnostic markers for disease, all reaching a sensitivity of ˜50% with a specificity of 95%. FIG. 9A: FABP7 isoform 2. FIG. 9B: PROK2. FIG. 9C: RTN3. FIG. 9D: SNAP91. FIG. 9E: Using a combination of all four antigens as a diagnostic test achieves higher sensitivity and specificity. Specifically, utilizing the ratio of IL-17 divided by the square root of IFNγ response towards the mean response to the four antigens achieves a sensitivity of 70% with a specificity of >95%.
The full-length proteins can also be used in a similar way, see FIG. 9A-D. Utilizing all four full-length antigens, using each individual's average response to the four, increases the sensitivity and specificity further (FIG. 9E). Combining different readouts, such as analyzing the ratio between IL-17 and IFNγ, can increase the sensitivity of the test further (FIG. 9E, Table 2).
Recombinant full-length versions of the antigens FABP7 (SEQ ID NO: 1), PROK2 (SEQ ID NO: 2), RTN3 (SEQ ID NO: 3), SNAP91 (SEQ ID NO: 4) were produced in E. coli in house according to standard recombinant protein production protocols and purified via his-tag purification. 52 patients and 24 controls were tested for reactivity towards the antigens in an IFNγ/IL17/IL22 FluoroSpot assay as previously described.
A second, larger, cohort was collected in order to test the full length antigens. In this cohort, 52 patients and 24 healthy controls were included. The inclusion/exclusion criteria (table 5) as well as the sampling and PBMCs isolation were the same.
The antigens (FABP7, PROK2, RTN3 and SNAP91) picked out from the screening of PrESTs described in Example 1 and 2 were selected for further testing on the full-length versions of the protein. The full-length antigens were produced by transforming plasmids encoding the antigen and a […] into Escherichia coli. After growth, the bacteria were lysed and the protein purified from the supernatant of the bacterial lysis via 6× histidine-tag purification on an immobilized metal affinity chromatography-column. The antigens were subsequently coupled to beads and endotoxin-washed as previously described.
The FluoroSpot assay was performed under sterile conditions in a cell culture hood. The cells were thawed in a water bath at 37° C. and washed with cRPMI (RPMI 1640 medium, Sigma Aldrich, containing 10% fetal calf serum, 1% 200 mM L-Glutamine, 1% 10,000 U/ml Penicillin-10 mg/ml Streptomycin). The cells were counted manually using a light-microscope (Nikon TMS-F, Nikon, Japan) and subsequently diluted in cRPMI to a concentration of 2.5×10^6 cells/ml. The FluoroSpot plate (Human IFNγ/IL-22/IL-17A FluoroSpot kit, pre-coated, Mabtech, Sweden) was washed with PBS and then blocked with cRPMI for 30 min at room temperature. The blocking cRPMI was then discarded and 100 μl fresh cRPMI was added to each well of the FluoroSpot plate. Antigen (3×10^6 beads) was added to each well in duplicates according to a specific layout. In accordance to the manufacturer's protocol, anti-CD3 was used as a positive control. Both uncoupled beads and media without stimuli was used as negative controls. PBMCs (250,000 cells) in 100 μl cRPMI were added to each well (125,000 cells for the anti-CD3). […]

Molecule	sensitivity as diagnostic marker [%]	specificity as diagnostic marker [%]
SNAP91: recombinant full-length SNAP91 (SEQ ID NO: 4) produced in E. coli (protein, listed as Homo sapiens) MSGQTLTDRIAAAQYSVTGSAVARAVCKATTHEVMGPKKKHLDYLIQATNETNVNIPQMADTLFERATNSSWVVVFKALVTTHHLMVHGNERFIQYLASRNTLFNLSNFLDKSGSHGYDMSTFIRRYSRYLNEKAFSYRQMAFDFARVKKGADGVMRTMAPEKLLKSMPILQGQIDALLEFDVHPNELTNGVINAAFMLLFKDLIKLFACYNDGVINLLEKFFEMKKGQCKDALEIYKRFLTRMTRVSEFLKVAEQVGIDKGDIPDLTQAPSSLMETLEQHLNTLEGKKPGNNEGSGAPSPLSKSSPATTVTSPNSTPAKTIDTSPPVDLFATASAAVPVSTSKPSSDLLDLQPDFSSGGAAAAAAPAPPPPAGGATAWGDLLGEDSLAALSSVPSEAQISDPFAPEPTPPTTTAEIATASASASTTTTVTAVTAEVDLFGDAFAASPGEAPAASEGAAAPATPTPVAAALDACSGNDPFAPSEGSAEAAPELDLFAMKPPETSVPVVTPTASTAPPVPATAPSPAPAVAAAAAATTAATAAATTTTTTSAATATTAPPALDIFGDLFESTPEVAAAPKPDAAPSIDLFSTDAFSSPPQGASPVPESSLTADLLSVDAFAAPSPATTASPAKVDSSGVIDLFGDAFGSSASEPQPASQAASSSSASADLLAGFGGSFMAPSPSPVTPAQNNLLQPNFEAAFGTTPSTSSSSSFDPSVFDGLGDLLMPTMAPAGQPAPVSMVPPSPAMAASKALGSDLDSSLASLVGNLGISGTTTKKGDLQWNAGEKKLTGGANWQPKVAPATWSAGVPPSAPLQGAVPPTSSVPPVAGAPSVGQPGAGFGMPPAGTGMPMMPQQPVMFAQPMMRPPFGAAAVPGTQLSPSPTPASQSPKKPPAKDPLADLNIKDFL	~50	95
FABP7 isoform 2. Full length: recombinant full-length human FABP7 isoform 2 (SEQ ID NO: 1) produced in E. coli; in b59 "FABP7" refers to PrEST data (protein, listed as Homo sapiens) MVEAFCATWKLTNSQNFDEYMKALGVGFATRQVGNVTKPTVIISQEGDKVVIRTLSTFKNTEISFQLGEEFDETTADDRNCKSVVSLDGDKLVHIQKWDGKETNFVREIKDGKMVMVSNDNSPFFLVFFSSPHTSHLLPSSSLLLPFFLLPSFFNNTSLARFFNYM	~50	95
PROK2: recombinant full-length PROK2 (SEQ ID NO: 2) produced in E. coli (protein, listed as Homo sapiens) MRSLCCAPLLLLLLLPPLLLTPRAGDAAVITGACDKDSQCGGGMCCAVSIWVKSIRICTPMGKLGDSCHPLTRKNNFGNGRQERRKRKRSKRKKEVPFFGRRMHHTCPCLPGLACLRTSFNRFICLAQK	~50	95
RTN3: recombinant full-length RTN3 (SEQ ID NO: 3) produced in E. coli (protein, listed as Homo sapiens) MAEPSAATQSHSISSSSFGAEPSAPGGGGSPGACPALGTKSCSSSCADSFVSSSSSQPVSLFSTSQEGLSSLCSDEPSSEIMTSSFLSSSEIHNTGLTILHGEKSHVLGSQPILAKEGKDHLDLLDMKKMEKPQGTSNNVSDSSVSLAAGVHCDRPSIPASFPEHPAFLSKKIGQVEEQIDKETKNPNGVSSREAKTALDADDRFTLLTAQKPPTEYSKVEGIYTYSLSPSKVSGDDVIEKDSPESPFEVIIDKAAFDKEFKDSYKESTDDFGSWSVHTDKESSEDISETNDKLFPLRNKEAGRYPMSALLSRQFSHTNAALEEVSRCVNDMHNFTNEILTWDLVPQVKQQTDKSSDCITKTTGLDMSEYNSEIPVVNLKTSTHQKTPVCSIDGSTPITKSTGDWAEASLQQENAITGKPVPDSLNSTKEFSIKGVQGNMQKQDDTLAELPGSPPEKCDSLGSGVATVKVVLPDDHLKDEMDWQSSALGEITEADSSGESDDTVIEDITADTSFENNKIQAEKPVSIPSAVVKTGEREIKEIPSCEREEKTSKNFEELVSDSELHQDQPDILGRSPASEAACSKVPDTNVSLEDVSEVAPEKPITTENPKLPSTVSPNVFNETEFSLNVTTSAYLESLHGKNVKHIDDSSPEDLIAAFTETRDKGIVDSERNAFKAISEKMTDFKTTPPVEVLHENESGGSEIKDIGSKYSEQSKETNGSEPLGVFPTQGTPVASLDLEQEQLTIKALKELGERQVEKSTSAQRDAELPSEEVLKQTFTFAPESWPQRSYDILERNVKNGSDLGISQKPITIRETTRVDAVSSLSKTELVKKHVLARLLTDFSVHDLIFWRDVKKTGFVFGTTLIMLLSLAAFSVISVVSYLILALLSVTISFRIYKSVIQAVQKSEEGHPFKAYLDVDITLSSEAFHNYMNAAMVHINRALKLIIRLFLVEDLVDSLKLAVFMWLMTYVGAVFNGITLLILAELLIFSVPIVYEKYKTQIDHYVGIARDQTKSIVEKIQAKLPGIAKKKAE	~50	95
